Source: US20190100563A1 (UNIVERSITY COURT OF THE UNIVERSITY OF EDINBURGH, published 2019)
Results are given in words; binding and its absence hold for the method and conditions named. Some entries that bind do so weakly or less than the wild type. Where a sequence is shown, tags or fusion partners need not be part of it.

Protein sequences, listed by entry. Tags and fused reporters are not part of them. Lines headed by an entry give the natural chain unless they say otherwise; changes in a name come on top.
UniProt P08603: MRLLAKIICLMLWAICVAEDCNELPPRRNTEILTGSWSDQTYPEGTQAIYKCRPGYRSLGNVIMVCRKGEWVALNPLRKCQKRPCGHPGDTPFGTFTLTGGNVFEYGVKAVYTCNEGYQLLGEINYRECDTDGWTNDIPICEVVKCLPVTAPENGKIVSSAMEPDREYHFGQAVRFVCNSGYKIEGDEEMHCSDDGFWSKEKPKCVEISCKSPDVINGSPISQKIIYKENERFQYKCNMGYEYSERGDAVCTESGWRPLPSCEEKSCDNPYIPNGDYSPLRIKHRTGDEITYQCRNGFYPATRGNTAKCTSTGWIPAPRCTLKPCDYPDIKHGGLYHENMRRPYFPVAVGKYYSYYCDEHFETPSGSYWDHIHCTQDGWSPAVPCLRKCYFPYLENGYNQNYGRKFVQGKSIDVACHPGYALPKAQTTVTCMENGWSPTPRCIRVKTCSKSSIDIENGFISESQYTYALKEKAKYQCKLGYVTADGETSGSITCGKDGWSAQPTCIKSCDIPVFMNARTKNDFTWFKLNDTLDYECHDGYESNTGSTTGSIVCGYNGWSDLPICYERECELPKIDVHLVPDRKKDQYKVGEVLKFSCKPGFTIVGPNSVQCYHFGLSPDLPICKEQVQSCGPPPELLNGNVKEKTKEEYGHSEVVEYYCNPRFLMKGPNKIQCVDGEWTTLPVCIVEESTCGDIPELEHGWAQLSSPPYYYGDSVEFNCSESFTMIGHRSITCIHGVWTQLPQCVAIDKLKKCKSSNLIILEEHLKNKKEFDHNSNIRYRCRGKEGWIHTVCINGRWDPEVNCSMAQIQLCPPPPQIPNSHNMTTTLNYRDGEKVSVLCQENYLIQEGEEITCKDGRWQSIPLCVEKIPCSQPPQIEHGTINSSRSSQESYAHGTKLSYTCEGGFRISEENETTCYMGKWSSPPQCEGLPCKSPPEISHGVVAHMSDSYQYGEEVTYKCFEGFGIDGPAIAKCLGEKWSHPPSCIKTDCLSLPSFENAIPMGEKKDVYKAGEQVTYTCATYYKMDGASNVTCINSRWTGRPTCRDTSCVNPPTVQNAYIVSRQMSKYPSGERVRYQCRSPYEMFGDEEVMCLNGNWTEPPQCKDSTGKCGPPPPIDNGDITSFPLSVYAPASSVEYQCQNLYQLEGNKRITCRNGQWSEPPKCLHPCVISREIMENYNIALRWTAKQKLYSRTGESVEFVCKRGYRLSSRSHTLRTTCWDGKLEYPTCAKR

target: T1, sPspCN (N-terminally hexaHis-SUMO-tagged PspC residues 37-140, S. pneumoniae strain D39) (Streptococcus pneumoniae (strain D39)); experiment: SPR, immobilised sPspCN, 50 nM analyte (concentration from the legend)
T1 sequence: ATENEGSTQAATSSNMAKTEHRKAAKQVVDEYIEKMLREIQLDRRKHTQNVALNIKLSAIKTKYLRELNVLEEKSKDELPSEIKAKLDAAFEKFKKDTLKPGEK

Substance	binding
CFH 8-9 (recombinant fragment, CCPs 8-9 of human CFH) (from UniProt P08603 446-566)	binds
CFH 8-15 (recombinant fragment, CCPs 8-15 of human CFH) (from UniProt P08603 446-928)	binds
CFH 19-20 (recombinant fragment, CCPs 19-20 of human CFH) (from UniProt P08603 1107-1231)	binds
